# Results: the supplement of paper PMC8728848
# The other results are listed elsewhere or left out.
# Tests used:
# Experiment in all cases: glycan array binding signal (z-score within array); higher = stronger binding
# Conditions in all cases: glycan notation: IUPAC condensed, linker removed
# [1] = biological target: Fuc(a1-2)Gal
# Outline: (§1)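 The binding signal is a Z-score computed within each array and averaged over linkers. Arrays of the same protein sequence at different concentrations or buffers were also averaged together. Data originate from 3228 arrays in the Consortium for Functional Glycomics database, kept only where the protein sequence was available.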
# [2] = biological target: Fuc(a1-2)Gal(b1-3)GalNAc
# Outline: as §1
# [3] = biological target: Fuc(a1-2)Gal(b1-3)GalNAc(a1-3)[Fuc(a1-2)]Gal(b1-4)Glc
# Outline: as §1
# [4] = biological target: Fuc(a1-2)Gal(b1-3)GalNAc(a1-3)[Fuc(a1-2)]Gal(b1-4)GlcNAc
# Outline: as §1
# [5] = biological target: Fuc(a1-2)Gal(b1-3)GalNAc(b1-3)Gal
# Outline: as §1
# [6] = biological target: Fuc(a1-2)Gal(b1-3)GalNAc(b1-3)Gal(a1-4)Gal(b1-4)Glc
# Outline: as §1
# [7] = biological target: Fuc(a1-2)Gal(b1-3)GalNAc(b1-4)[Neu5Ac(a2-3)]Gal(b1-4)Glc
# Outline: as §1
# [8] = biological target: Fuc(a1-2)Gal(b1-3)GlcNAc
# Outline: as §1
# [9] = biological target: Fuc(a1-2)Gal(b1-3)GlcNAc(b1-2)Man(a1-3)[Fuc(a1-2)Gal(b1-3)GlcNAc(b1-2)Man(a1-6)]Man(b1-4)GlcNAc(b1-4)GlcNAc
# Outline: as §1
# [10] = biological target: Fuc(a1-2)Gal(b1-3)GlcNAc(b1-3)Gal(b1-4)Glc
# Outline: as §1
# [11] = biological target: Fuc(a1-2)Gal(b1-3)GlcNAc(b1-3)[Fuc(a1-3)[Gal(b1-4)]GlcNAc(b1-6)]Gal(b1-4)Glc
# Outline: as §1
# [12] = biological target: Fuc(a1-2)Gal(b1-3)[Fuc(a1-4)]GlcNAc
# Outline: as §1
# [13] = biological target: Fuc(a1-2)Gal(b1-3)[Fuc(a1-4)]GlcNAc(b1-2)Man(a1-3)[Fuc(a1-2)Gal(b1-3)[Fuc(a1-4)]GlcNAc(b1-2)Man(a1-6)]Man(b1-4)GlcNAc(b1-4)GlcNAc
# Outline: as §1
# [14] = biological target: Fuc(a1-2)Gal(b1-3)[Fuc(a1-4)]GlcNAc(b1-3)[Fuc(a1-3)[Gal(b1-4)]GlcNAc(b1-6)]Gal(b1-4)Glc
# Outline: as §1
# [15] = biological target: Fuc(a1-2)Gal(b1-3)[Fuc(a1-4)]GlcNAc(b1-3)[Gal(b1-4)GlcNAc(b1-6)]Gal(b1-4)Glc
# Outline: as §1
# [16] = biological target: Fuc(a1-2)Gal(b1-4)Glc
# Outline: as §1
# [17] = biological target: Fuc(a1-2)Gal(b1-4)Glc6S
# Outline: as §1
# [18] = biological target: Fuc(a1-2)Gal(b1-4)GlcNAc
# Outline: as §1
# [19] = biological target: Fuc(a1-2)Gal(b1-4)GlcNAc(b1-2)Man(a1-3)[Fuc(a1-2)Gal(b1-4)GlcNAc(b1-2)Man(a1-6)]Man(b1-4)GlcNAc(b1-4)GlcNAc
# Outline: as §1
# [20] = biological target: Fuc(a1-2)Gal(b1-4)GlcNAc(b1-3)Gal(b1-4)GlcNAc
# Outline: as §1
# [21] = biological target: Fuc(a1-2)Gal(b1-4)GlcNAc(b1-3)Gal(b1-4)GlcNAc(b1-3)Gal(b1-4)GlcNAc
# Outline: as §1
# [22] = biological target: Fuc(a1-2)Gal(b1-4)GlcNAc(b1-3)GalNAc
# Outline: as §1
# [23] = biological target: Fuc(a1-2)Gal(b1-4)GlcNAc6S
# Outline: as §1
# [24] = biological target: Fuc(a1-2)Gal(b1-4)[Fuc(a1-3)]GlcNAc
# Outline: as §1
# [25] = biological target: Fuc(a1-2)Gal(b1-4)[Fuc(a1-3)]GlcNAc(b1-2)Man(a1-3)[Fuc(a1-2)Gal(b1-4)[Fuc(a1-3)]GlcNAc(b1-2)Man(a1-6)]Man(b1-4)GlcNAc(b1-4)GlcNAc
# Outline: as §1
# [26] = biological target: Fuc(a1-2)Gal(b1-4)[Fuc(a1-3)]GlcNAc(b1-3)Gal(b1-4)[Fuc(a1-3)]GlcNAc
# Outline: as §1
# [27] = biological target: Fuc(a1-2)Gal(b1-4)[Fuc(a1-3)]GlcNAc(b1-3)Gal(b1-4)[Fuc(a1-3)]GlcNAc(b1-3)Gal(b1-4)[Fuc(a1-3)]GlcNAc
# Outline: as §1
# [28] = biological target: Fuc(a1-2)Gal6S(b1-4)Glc
# Outline: as §1
# [29] = biological target: Fuc(a1-2)Gal6S(b1-4)Glc6S
# Outline: as §1
# [30] = biological target: Fuc(a1-2)Gal6S(b1-4)GlcNAc
# Outline: as §1
# [31] = biological target: Fuc(a1-2)[Gal(a1-3)]Gal
# Outline: as §1
# [32] = biological target: Fuc(a1-2)[Gal(a1-3)]Gal(b1-3)GlcNAc
# Outline: as §1
# [33] = biological target: Fuc(a1-2)[Gal(a1-3)]Gal(b1-3)GlcNAc(b1-2)Man(a1-3)[Fuc(a1-2)[Gal(a1-3)]Gal(b1-3)GlcNAc(b1-2)Man(a1-6)]Man(b1-4)GlcNAc(b1-4)GlcNAc
# Outline: as §1
# [34] = biological target: Fuc(a1-2)[Gal(a1-3)]Gal(b1-4)Glc
# Outline: as §1
# [35] = biological target: Fuc(a1-2)[Gal(a1-3)]Gal(b1-4)GlcNAc
# Outline: as §1
# [36] = biological target: Fuc(a1-2)[Gal(a1-3)]Gal(b1-4)GlcNAc(b1-2)Man(a1-3)[Fuc(a1-2)[Gal(a1-3)]Gal(b1-4)GlcNAc(b1-2)Man(a1-6)]Man(b1-4)GlcNAc(b1-4)GlcNAc
# Outline: as §1
# [37] = biological target: Fuc(a1-2)[Gal(a1-3)]Gal(b1-4)[Fuc(a1-3)]GlcNAc
# Outline: as §1
# [38] = biological target: Fuc(a1-2)[Gal(a1-4)]Gal(b1-4)GlcNAc
# Outline: as §1
# [39] = biological target: Fuc(a1-2)[GalNAc(a1-3)]Gal
# Outline: as §1
# [40] = biological target: Fuc(a1-2)[GalNAc(a1-3)]Gal(b1-3)GalNAc(a1-3)[Fuc(a1-2)]Gal(b1-4)GlcNAc
# Outline: as §1
# [41] = biological target: Fuc(a1-2)[GalNAc(a1-3)]Gal(b1-3)GlcNAc
# Outline: as §1
# [42] = biological target: Fuc(a1-2)[GalNAc(a1-3)]Gal(b1-3)GlcNAc(b1-2)Man(a1-3)[Fuc(a1-2)[GalNAc(a1-3)]Gal(b1-3)GlcNAc(b1-2)Man(a1-6)]Man(b1-4)GlcNAc(b1-4)GlcNAc
# Outline: as §1
# [43] = biological target: Fuc(a1-2)[GalNAc(a1-3)]Gal(b1-4)Glc
# Outline: as §1
# [44] = biological target: Fuc(a1-2)[GalNAc(a1-3)]Gal(b1-4)GlcNAc
# Outline: as §1
# [45] = biological target: Fuc(a1-2)[GalNAc(a1-3)]Gal(b1-4)GlcNAc(b1-2)Man(a1-3)[Fuc(a1-2)[GalNAc(a1-3)]Gal(b1-4)GlcNAc(b1-2)Man(a1-6)]Man(b1-4)GlcNAc(b1-4)GlcNAc
# Outline: as §1
# [46] = biological target: Fuc(a1-2)[GalNAc(a1-3)]Gal(b1-4)GlcNAc(b1-3)Gal(b1-4)GlcNAc
# Outline: as §1
# [47] = biological target: Fuc(a1-2)[GalNAc(a1-3)]Gal(b1-4)GlcNAc(b1-3)Gal(b1-4)GlcNAc(b1-3)Gal(b1-4)GlcNAc
# Outline: as §1
# [48] = biological target: Fuc(a1-2)[GalNAc(a1-3)]Gal(b1-4)[Fuc(a1-3)]GlcNAc
# Outline: as §1
# [49] = biological target: Fuc(a1-2)[GalNAc(a1-4)]Gal(b1-4)GlcNAc
# Outline: as §1
# [50] = biological target: Fuc(a1-2)[GalNAc(b1-3)]Gal
# Outline: as §1
# [51] = biological target: Fuc(a1-3)GlcNAc
# Outline: as §1
# [52] = biological target: Fuc(a1-3)[Gal(b1-4)]Glc6S
# Outline: as §1
# [53] = biological target: Fuc(a1-3)[Gal(b1-4)]GlcNAc
# Outline: as §1
# [54] = biological target: Fuc(a1-3)[Gal(b1-4)]GlcNAc(b1-2)Man(a1-3)[Fuc(a1-3)[Gal(b1-4)]GlcNAc(b1-2)Man(a1-6)]Man(b1-4)GlcNAc(b1-4)GlcNAc
# Outline: as §1
# [55] = biological target: Fuc(a1-3)[Gal(b1-4)]GlcNAc(b1-3)Gal(b1-3)[Fuc(a1-4)]GlcNAc
# Outline: as §1
# [56] = biological target: Fuc(a1-3)[Gal(b1-4)]GlcNAc(b1-3)GalNAc
# Outline: as §1
# [57] = biological target: Fuc(a1-3)[Gal(b1-4)]GlcNAc(b1-4)Gal(b1-4)[Fuc(a1-3)]GlcNAc
# Outline: as §1
# [58] = biological target: Fuc(a1-3)[Gal(b1-4)]GlcNAc(b1-4)Gal(b1-4)[Fuc(a1-3)]GlcNAc(b1-4)Gal(b1-4)[Fuc(a1-3)]GlcNAc
# Outline: as §1
# [59] = biological target: Fuc(a1-3)[Gal(b1-4)]GlcNAc(b1-6)[Gal(b1-3)GlcNAc(b1-3)]Gal(b1-4)Glc
# Outline: as §1
# [60] = biological target: Fuc(a1-3)[Gal(b1-4)]GlcNAc6S
# Outline: as §1
binder,measurement,setting,value
"SRS2 (Toxoplasma gondii), O15695 (protein) MATRASLARQKTGAACLAVLTASPSVVAAKPWKRWVGVSVILASAFAVGVSAGPPYRYEPEKFTCRPKKGILSQWVSLLYQVQHNITFACEEATPVPTTLISEEHGLMVCAENMTPEECEANPAPLSAFLPGATKEWVTGDSVLTGLKISVPESQYPANAKSFRVGCRHNTKTGNTCMLTIHVEPRDPAVERQEARCSYTENSTLPKIFVTKDSNTMTLACGPHGAPMPESYTENYCSTPDTCDEKPFTSVIPGYLSKWFFGDPKSPLGARVRIPPEQIPSSPQINYFGCTGPTEGEGPKYNCTVPVPLGGGDPSEGSRPGGGSGGGKRGGGQGGGGSLAGFDFRQGSARHSLPSRMALSASALLAMTALAY",glycan array binding signal (z-score),[1],0.535
same,glycan array binding signal (z-score),[2],0.187
same,glycan array binding signal (z-score),[3],-0.306
same,glycan array binding signal (z-score),[4],0.792
same,glycan array binding signal (z-score),[5],-0.963
same,glycan array binding signal (z-score),[6],0.231
same,glycan array binding signal (z-score),[7],-0.451
same,glycan array binding signal (z-score),[8],0.051
same,glycan array binding signal (z-score),[9],0.704
same,glycan array binding signal (z-score),[10],-0.479
same,glycan array binding signal (z-score),[11],0.061
same,glycan array binding signal (z-score),[12],-0.636
same,glycan array binding signal (z-score),[13],0.148
same,glycan array binding signal (z-score),[14],0.122
same,glycan array binding signal (z-score),[15],-0.45
same,glycan array binding signal (z-score),[16],-0.631
same,glycan array binding signal (z-score),[17],0.222
same,glycan array binding signal (z-score),[18],-0.585
same,glycan array binding signal (z-score),[19],1.07
same,glycan array binding signal (z-score),[20],0.699
same,glycan array binding signal (z-score),[21],-0.192
same,glycan array binding signal (z-score),[22],-0.7
same,glycan array binding signal (z-score),[23],0.345
same,glycan array binding signal (z-score),[24],0.367
same,glycan array binding signal (z-score),[25],0.238
same,glycan array binding signal (z-score),[26],-0.404
same,glycan array binding signal (z-score),[27],-0.401
same,glycan array binding signal (z-score),[28],-0.803
same,glycan array binding signal (z-score),[29],0.237
same,glycan array binding signal (z-score),[30],0.801
same,glycan array binding signal (z-score),[31],0.029
same,glycan array binding signal (z-score),[32],-0.586
same,glycan array binding signal (z-score),[33],-0.83
same,glycan array binding signal (z-score),[34],-0.233
same,glycan array binding signal (z-score),[35],-0.294
same,glycan array binding signal (z-score),[36],0.098
same,glycan array binding signal (z-score),[37],0.068
same,glycan array binding signal (z-score),[38],-0.255
same,glycan array binding signal (z-score),[39],0.017
same,glycan array binding signal (z-score),[40],0.472
same,glycan array binding signal (z-score),[41],0.735
same,glycan array binding signal (z-score),[42],-0.13
same,glycan array binding signal (z-score),[43],-0.13
same,glycan array binding signal (z-score),[44],0.698
same,glycan array binding signal (z-score),[45],1.07
same,glycan array binding signal (z-score),[46],0.358
same,glycan array binding signal (z-score),[47],0.391
same,glycan array binding signal (z-score),[48],0.593
same,glycan array binding signal (z-score),[49],-0.836
same,glycan array binding signal (z-score),[50],0.074
same,glycan array binding signal (z-score),[51],0.522
same,glycan array binding signal (z-score),[52],-0.341
same,glycan array binding signal (z-score),[53],-0.537
same,glycan array binding signal (z-score),[54],0.213
same,glycan array binding signal (z-score),[55],0.945
same,glycan array binding signal (z-score),[56],0.176
same,glycan array binding signal (z-score),[57],-0.27
same,glycan array binding signal (z-score),[58],-0.821
same,glycan array binding signal (z-score),[59],-0.834
same,glycan array binding signal (z-score),[60],0.562

# 4 entries picked at random from the list so far, as already listed:
binder,measurement,setting,value
"SRS2 (Toxoplasma gondii), O15695 (protein) MATRASLARQKTGAACLAVLTASPSVVAAKPWKRWVGVSVILASAFAVGVSAGPPYRYEPEKFTCRPKKGILSQWVSLLYQVQHNITFACEEATPVPTTLISEEHGLMVCAENMTPEECEANPAPLSAFLPGATKEWVTGDSVLTGLKISVPESQYPANAKSFRVGCRHNTKTGNTCMLTIHVEPRDPAVERQEARCSYTENSTLPKIFVTKDSNTMTLACGPHGAPMPESYTENYCSTPDTCDEKPFTSVIPGYLSKWFFGDPKSPLGARVRIPPEQIPSSPQINYFGCTGPTEGEGPKYNCTVPVPLGGGDPSEGSRPGGGSGGGKRGGGQGGGGSLAGFDFRQGSARHSLPSRMALSASALLAMTALAY",glycan array binding signal (z-score),[27],-0.401
same,glycan array binding signal (z-score),[12],-0.636
same,glycan array binding signal (z-score),[45],1.07
same,glycan array binding signal (z-score),[10],-0.479
